Assay results from paper PMC10908827, “Structural insight into an Arl1–ArfGEF complex involved in Golgi recruitment of a GRIP-domain golgin” (Nature Communications, 2024).
Positions count from the first letter of the chain named. These are yes or no findings as the source states them, for the method shown. Binding seen in cells or lysates may run through a third protein. Some entries that bind do so weakly or less than the wild type. Sequences can lack the tags named with a protein.

Experiments:
[1] = molecular target: T1, 3xFLAG tagged Gea2 L79A (S. cerevisiae) (UniProt P39993); assay: co-IP; Gea2-3xFLAG and Arl1-3xHA co-expressed in gea2∆arl1∆ yeast; lysate (20 mM HEPES pH 7.2, 100 mM KCl, 5 mM MgCl2, 1% Triton X-100, 5 mM EDTA, 10% glycerol) on anti-FLAG M2 magnetic beads overnight at 4 °C; anti-HA blot
T1 sequence: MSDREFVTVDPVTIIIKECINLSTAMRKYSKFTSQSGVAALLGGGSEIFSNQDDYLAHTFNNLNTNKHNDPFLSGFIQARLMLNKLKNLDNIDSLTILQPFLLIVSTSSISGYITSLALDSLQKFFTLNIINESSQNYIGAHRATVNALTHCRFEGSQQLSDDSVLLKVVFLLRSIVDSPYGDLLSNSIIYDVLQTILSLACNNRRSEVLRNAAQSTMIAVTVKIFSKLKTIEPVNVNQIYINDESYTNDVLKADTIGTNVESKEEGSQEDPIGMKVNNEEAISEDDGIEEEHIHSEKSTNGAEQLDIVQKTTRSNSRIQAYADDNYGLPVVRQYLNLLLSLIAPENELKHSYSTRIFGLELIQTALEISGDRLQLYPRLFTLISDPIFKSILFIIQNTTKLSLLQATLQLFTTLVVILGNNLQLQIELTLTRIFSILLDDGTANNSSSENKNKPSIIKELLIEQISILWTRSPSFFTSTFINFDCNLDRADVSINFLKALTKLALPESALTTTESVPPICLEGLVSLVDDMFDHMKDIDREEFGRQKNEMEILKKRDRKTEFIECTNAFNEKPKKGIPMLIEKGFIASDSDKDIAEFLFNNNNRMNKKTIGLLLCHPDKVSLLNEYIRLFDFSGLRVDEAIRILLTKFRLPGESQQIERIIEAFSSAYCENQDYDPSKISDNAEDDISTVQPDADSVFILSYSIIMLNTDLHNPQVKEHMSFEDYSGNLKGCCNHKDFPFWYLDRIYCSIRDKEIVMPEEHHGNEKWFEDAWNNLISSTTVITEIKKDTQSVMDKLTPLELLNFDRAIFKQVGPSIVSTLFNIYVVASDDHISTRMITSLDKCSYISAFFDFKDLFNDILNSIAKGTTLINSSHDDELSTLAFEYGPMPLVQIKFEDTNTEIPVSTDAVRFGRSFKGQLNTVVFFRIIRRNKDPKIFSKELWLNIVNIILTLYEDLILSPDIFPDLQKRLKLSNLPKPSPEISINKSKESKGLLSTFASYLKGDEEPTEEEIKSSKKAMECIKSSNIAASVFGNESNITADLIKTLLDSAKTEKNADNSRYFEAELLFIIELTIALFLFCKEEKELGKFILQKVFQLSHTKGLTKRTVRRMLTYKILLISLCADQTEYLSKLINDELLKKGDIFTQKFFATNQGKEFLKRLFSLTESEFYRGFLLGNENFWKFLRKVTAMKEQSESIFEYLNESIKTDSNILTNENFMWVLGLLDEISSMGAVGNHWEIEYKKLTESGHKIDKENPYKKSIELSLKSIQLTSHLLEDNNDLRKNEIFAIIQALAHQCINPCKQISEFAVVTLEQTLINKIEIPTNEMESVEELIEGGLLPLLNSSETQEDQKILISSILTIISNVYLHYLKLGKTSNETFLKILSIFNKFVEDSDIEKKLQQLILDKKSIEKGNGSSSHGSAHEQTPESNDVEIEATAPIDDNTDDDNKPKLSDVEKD

[2] = molecular target: T2, 3xFLAG tagged Gea2 P71A (S. cerevisiae) (UniProt P39993); assay: as above
T2 sequence: T1 sequence with P71A, A79L

binding [1]: binds | binding [2]: binds
B1: 3xHA tagged WT Arl1 (protein, UniProt P38116 1-183)
chain: MGNIFSSMFDKLWGSNKELRILILGLDGAGKTTILYRLQIGEVVTTKPTIGFNVETLSYKNLKLNVWDLGGQTSIRPYWRCYYADTAAVIFVVDSTDKDRMSTASKELHLMLQEEELQDAALLVFANKQDQPGALSASEVSKELNLVELKDRSWSIVASSAIKGEGITEGLDWLIDVIKEEQL
